The chains behind the UniProt entries cited, without tags or fusion partners. Where a name states a change or a piece, a line headed by the entry shows the natural chain unless it says otherwise.
UniProt O75691: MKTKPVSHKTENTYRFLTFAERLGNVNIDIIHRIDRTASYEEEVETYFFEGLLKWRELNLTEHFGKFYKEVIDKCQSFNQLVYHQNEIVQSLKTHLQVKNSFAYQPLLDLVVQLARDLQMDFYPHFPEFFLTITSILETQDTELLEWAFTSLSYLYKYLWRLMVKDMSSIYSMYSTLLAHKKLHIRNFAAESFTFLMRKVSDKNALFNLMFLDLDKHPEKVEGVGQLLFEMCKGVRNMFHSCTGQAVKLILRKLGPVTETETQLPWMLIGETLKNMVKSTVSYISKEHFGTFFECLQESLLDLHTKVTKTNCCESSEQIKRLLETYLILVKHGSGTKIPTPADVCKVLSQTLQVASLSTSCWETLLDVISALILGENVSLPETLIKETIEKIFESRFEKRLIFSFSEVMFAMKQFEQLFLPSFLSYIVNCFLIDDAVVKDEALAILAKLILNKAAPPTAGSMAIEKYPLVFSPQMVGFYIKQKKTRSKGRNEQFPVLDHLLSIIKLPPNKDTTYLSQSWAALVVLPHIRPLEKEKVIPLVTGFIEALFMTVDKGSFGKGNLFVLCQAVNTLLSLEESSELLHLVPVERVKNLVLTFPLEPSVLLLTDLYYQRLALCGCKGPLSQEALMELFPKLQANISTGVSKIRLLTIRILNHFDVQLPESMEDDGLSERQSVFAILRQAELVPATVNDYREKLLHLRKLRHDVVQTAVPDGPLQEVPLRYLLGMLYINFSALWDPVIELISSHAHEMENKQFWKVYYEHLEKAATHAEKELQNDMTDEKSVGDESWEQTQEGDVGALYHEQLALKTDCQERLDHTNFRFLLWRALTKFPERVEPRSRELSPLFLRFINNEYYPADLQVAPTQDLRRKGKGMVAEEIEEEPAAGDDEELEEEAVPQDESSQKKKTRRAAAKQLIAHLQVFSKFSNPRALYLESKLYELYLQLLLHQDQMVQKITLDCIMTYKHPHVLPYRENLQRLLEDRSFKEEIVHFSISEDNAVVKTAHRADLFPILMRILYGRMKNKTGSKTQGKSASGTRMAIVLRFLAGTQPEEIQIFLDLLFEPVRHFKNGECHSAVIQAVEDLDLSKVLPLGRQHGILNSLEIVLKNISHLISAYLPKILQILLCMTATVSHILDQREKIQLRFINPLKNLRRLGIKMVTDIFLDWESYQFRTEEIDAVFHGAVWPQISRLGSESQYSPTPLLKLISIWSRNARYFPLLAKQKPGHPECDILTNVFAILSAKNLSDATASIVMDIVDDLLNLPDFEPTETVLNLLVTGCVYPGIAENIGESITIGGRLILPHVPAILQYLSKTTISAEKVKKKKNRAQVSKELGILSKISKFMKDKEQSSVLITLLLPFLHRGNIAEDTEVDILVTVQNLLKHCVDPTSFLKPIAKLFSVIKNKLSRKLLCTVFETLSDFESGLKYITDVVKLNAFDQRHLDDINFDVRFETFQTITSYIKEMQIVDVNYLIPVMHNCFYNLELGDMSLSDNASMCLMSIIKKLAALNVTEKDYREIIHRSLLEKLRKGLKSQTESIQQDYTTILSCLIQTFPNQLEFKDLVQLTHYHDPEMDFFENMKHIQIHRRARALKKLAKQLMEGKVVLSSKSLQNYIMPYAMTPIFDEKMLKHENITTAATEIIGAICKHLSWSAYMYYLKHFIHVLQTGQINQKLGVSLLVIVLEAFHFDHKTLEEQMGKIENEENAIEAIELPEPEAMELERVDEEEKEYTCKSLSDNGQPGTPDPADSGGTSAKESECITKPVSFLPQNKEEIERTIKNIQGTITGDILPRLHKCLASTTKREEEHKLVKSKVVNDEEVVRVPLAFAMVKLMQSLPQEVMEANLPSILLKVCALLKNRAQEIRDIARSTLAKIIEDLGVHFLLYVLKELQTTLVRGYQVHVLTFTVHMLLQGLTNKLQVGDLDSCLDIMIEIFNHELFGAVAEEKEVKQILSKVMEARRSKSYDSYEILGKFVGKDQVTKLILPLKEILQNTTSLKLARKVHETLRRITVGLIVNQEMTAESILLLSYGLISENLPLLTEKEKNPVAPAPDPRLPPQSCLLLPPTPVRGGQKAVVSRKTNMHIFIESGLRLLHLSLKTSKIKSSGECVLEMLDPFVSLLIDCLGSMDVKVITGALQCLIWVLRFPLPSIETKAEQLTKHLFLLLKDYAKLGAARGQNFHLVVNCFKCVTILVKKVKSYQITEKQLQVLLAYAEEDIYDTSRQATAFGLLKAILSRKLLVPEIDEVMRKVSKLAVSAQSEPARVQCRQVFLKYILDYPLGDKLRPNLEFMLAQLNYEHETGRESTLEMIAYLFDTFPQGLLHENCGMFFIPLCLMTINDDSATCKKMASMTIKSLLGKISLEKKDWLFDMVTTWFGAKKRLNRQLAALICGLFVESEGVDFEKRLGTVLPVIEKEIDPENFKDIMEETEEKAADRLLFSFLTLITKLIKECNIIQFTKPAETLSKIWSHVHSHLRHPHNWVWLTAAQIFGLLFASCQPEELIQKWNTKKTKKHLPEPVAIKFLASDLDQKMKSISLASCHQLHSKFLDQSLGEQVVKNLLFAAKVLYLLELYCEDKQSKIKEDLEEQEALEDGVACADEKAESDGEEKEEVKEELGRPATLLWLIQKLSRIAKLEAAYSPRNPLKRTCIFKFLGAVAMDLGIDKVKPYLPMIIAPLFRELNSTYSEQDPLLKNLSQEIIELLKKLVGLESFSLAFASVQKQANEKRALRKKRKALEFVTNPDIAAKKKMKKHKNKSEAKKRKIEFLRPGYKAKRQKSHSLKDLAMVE
UniProt O75616: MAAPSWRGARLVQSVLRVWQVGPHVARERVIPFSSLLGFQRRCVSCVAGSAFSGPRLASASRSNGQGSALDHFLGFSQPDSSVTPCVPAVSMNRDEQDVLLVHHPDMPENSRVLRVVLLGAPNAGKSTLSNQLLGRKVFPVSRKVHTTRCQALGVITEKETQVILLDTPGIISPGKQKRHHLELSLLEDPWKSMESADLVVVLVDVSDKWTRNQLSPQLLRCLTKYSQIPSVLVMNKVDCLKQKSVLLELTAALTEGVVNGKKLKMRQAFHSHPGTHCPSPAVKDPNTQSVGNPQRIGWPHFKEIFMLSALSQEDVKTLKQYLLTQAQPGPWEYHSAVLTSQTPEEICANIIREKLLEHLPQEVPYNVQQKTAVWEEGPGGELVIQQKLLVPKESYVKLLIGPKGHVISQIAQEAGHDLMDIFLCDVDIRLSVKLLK
UniProt O95613: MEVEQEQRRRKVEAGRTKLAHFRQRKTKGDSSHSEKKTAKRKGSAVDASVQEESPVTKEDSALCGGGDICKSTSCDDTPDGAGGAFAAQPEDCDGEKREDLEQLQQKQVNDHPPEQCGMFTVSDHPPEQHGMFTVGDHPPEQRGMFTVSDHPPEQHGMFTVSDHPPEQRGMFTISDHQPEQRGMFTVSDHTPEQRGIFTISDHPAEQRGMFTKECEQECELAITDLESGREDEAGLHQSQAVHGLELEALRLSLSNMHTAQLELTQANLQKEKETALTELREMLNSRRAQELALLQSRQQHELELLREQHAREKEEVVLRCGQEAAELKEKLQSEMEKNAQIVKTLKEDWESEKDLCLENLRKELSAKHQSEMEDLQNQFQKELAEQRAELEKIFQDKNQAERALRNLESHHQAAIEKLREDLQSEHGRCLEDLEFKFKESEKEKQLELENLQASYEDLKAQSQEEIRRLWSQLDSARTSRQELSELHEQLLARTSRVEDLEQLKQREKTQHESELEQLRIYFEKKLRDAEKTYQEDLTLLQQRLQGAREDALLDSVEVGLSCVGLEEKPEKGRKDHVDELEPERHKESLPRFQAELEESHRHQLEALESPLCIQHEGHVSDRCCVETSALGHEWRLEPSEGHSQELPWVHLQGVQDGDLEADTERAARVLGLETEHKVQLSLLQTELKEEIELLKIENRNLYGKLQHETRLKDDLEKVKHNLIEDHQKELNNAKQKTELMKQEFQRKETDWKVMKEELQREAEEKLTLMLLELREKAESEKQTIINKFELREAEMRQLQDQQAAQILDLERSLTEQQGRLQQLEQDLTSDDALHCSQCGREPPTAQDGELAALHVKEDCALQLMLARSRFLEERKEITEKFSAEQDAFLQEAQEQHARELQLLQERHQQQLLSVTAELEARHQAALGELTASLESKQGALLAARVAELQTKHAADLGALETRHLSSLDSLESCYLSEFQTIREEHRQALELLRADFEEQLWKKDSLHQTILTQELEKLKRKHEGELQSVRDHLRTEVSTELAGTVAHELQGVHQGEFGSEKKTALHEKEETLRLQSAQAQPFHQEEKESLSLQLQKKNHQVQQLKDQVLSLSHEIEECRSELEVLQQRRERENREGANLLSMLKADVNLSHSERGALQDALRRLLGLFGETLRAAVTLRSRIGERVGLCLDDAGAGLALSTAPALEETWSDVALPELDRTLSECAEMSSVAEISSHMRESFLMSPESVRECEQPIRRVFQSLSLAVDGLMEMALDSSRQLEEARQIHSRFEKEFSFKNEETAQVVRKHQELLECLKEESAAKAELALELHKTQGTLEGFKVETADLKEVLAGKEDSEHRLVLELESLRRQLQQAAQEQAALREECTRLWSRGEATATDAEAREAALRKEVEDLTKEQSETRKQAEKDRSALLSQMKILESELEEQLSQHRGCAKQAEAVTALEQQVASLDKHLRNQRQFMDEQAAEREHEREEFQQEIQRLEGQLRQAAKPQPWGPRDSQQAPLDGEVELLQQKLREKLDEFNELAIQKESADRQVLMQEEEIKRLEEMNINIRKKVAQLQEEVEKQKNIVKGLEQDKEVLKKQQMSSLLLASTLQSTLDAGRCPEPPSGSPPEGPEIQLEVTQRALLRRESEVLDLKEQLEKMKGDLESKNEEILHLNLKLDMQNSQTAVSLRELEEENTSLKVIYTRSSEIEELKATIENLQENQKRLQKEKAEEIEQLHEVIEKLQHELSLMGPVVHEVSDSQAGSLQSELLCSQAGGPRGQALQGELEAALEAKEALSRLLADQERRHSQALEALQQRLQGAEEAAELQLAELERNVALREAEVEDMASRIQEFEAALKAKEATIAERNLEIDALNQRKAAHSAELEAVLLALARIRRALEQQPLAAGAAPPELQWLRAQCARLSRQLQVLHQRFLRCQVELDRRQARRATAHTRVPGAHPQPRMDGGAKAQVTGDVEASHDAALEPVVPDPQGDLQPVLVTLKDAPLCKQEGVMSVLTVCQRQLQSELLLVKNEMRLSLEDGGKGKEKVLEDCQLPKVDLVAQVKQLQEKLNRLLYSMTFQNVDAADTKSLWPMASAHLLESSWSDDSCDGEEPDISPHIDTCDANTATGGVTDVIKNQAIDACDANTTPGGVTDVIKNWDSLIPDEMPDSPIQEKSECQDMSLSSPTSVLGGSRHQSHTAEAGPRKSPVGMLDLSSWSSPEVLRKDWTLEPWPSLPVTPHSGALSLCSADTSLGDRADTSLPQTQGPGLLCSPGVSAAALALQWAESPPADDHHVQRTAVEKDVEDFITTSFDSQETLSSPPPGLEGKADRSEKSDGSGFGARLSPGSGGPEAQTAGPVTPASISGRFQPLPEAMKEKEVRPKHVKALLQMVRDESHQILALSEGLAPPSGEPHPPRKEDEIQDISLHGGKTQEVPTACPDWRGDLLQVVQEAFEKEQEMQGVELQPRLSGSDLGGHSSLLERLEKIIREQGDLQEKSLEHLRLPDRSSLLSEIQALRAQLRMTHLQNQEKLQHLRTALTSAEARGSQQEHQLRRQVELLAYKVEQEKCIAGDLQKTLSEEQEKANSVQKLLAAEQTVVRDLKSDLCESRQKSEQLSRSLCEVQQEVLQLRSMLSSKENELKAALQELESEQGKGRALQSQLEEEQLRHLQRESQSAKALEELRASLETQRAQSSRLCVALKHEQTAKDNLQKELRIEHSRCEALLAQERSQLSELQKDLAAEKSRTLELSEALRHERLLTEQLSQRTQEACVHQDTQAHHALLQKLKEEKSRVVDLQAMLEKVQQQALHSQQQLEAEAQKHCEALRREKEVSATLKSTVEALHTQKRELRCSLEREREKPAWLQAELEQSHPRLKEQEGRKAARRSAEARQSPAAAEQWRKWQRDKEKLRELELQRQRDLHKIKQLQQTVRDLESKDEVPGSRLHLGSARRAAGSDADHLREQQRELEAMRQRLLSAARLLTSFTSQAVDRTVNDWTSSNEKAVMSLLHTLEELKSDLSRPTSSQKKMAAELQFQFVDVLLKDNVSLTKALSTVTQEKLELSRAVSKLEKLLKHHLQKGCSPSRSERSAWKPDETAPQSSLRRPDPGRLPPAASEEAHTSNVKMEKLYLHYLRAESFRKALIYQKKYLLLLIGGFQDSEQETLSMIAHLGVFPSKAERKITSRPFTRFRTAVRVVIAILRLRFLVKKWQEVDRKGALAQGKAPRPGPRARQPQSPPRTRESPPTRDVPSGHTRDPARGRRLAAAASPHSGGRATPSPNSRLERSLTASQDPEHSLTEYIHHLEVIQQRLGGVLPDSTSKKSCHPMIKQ

Some of the results follow. Small differences around the control level are noise.
Each target was assayed with CN[C@@H]1C[C@H]2O[C@@](C)([C@@H]1OC)n1c3ccccc3c3c4c(c5c6ccccc6n2c5c31)C(=O)NC4 [staurosporine] (assay: log2 fold change of tryptic peptide abundance, ligand vs vehicle (limited proteolysis) (log2 ratio); higher = more trypsin-susceptible (destabilized)). Conditions: ligand concentration: 20 uM; sample: K562 cleared lysate; digestion: 4 min, 22 C (HT-PELSA RT4min, Orbitrap Astral).
In the case of “CSDE1 (peptide sequence: VGDDVEFEVSSDRR, peptide start residue: 65) (UniProt O75534)”, the log2 fold change is reported as -0.189.
“BAG3 (peptide sequence: SSLGSHQLPR, peptide start residue: 194) (UniProt O95817)” showed a log2 fold change of 0.259.
Target “SMNDC1 (peptide sequence: IKELEQEREDQK, peptide start residue: 164) (UniProt O75940)” has a log2 fold change of -0.103.
“BAG2 (peptide sequence: TLQQNAESR, peptide start residue: 201) (UniProt O95816)” gave a log2 fold change of -0.128.
“GLS (peptide sequence: VLSPEAVR, peptide start residue: 447) (UniProt O94925)” showed a log2 fold change of 0.199.
“POLQ (peptide sequence: TPIFGGRPLDILTYK, peptide start residue: 461) (UniProt O75417)” gave a log2 fold change of 0.236.
“TRIM3 (peptide sequence: SPGGPGSHVR, peptide start residue: 437) (UniProt O75382)” showed a log2 fold change of 0.356.
“RTN3 (peptide sequence: SYDILER, peptide start residue: 789) (UniProt O95197)” was tested, and the log2 fold change was -0.225.
With “CRYZL1 (peptide sequence: AYTALHYLSHLSPGK, peptide start residue: 132) (UniProt O95825)” the log2 fold change was 0.166.
“UTP20 (peptide sequence: QKSHSLKDLAMVE, peptide start residue: 2773) (UniProt O75691)” gave a log2 fold change of -0.785.
“UniProt O75444 (peptide sequence: KEPVETDR, peptide start residue: 34)” gave a log2 fold change of 0.0742.
For “MED6 (peptide sequence: RKEEPSSIFQR, peptide start residue: 164) (UniProt O75586)”, the log2 fold change was -0.291.
“PRPF40A (peptide sequence: SMWTEHK, peptide start residue: 144) (UniProt O75400)” showed a log2 fold change of 0.177.
With “TAF5L (peptide sequence: QYVDSDGPLK, peptide start residue: 21) (UniProt O75529)” the log2 fold change was -0.000362.
In the case of “UBE4B (peptide sequence: HLLNSPTDPFNR, peptide start residue: 1261) (UniProt O95155)”, the log2 fold change is reported as 0.295.
In the case of “ZBED1 (peptide sequence: SLESSQTDLK, peptide start residue: 5) (UniProt O96006)”, the log2 fold change is reported as -0.154.
In the case of “ALDH1A2 (peptide sequence: TMDEVIER, peptide start residue: 430) (UniProt O94788)”, the log2 fold change is reported as 0.165.
In the case of “NPM3 (peptide sequence: NHDHQEIAVPVANLK, peptide start residue: 88) (UniProt O75607)”, the log2 fold change is reported as 0.0363.
Work on “RECQL5 (peptide sequence: TREACEQLAIELSCR, peptide start residue: 268) (UniProt O94762)” yielded a log2 fold change of -0.888.
With “ERAL1 (peptide sequence: STLSNQLLGR, peptide start residue: 127) (UniProt O75616)” the log2 fold change was 0.146.
“UniProt O94875 (peptide sequence: CDDGWFVGTSR, peptide start residue: 1264)” showed a log2 fold change of 0.0782.
“MFN2 (peptide sequence: WDASASEPEYMEEVRR, peptide start residue: 260) (UniProt O95140)” showed a log2 fold change of -0.501.
Work on “AP2A2 (peptide sequence: SSPLIQFHLLHSK, peptide start residue: 516) (UniProt O94973)” yielded a log2 fold change of 0.143.
Work on “CD2BP2 (peptide sequence: KKLVDPVAGSGGPGSR, peptide start residue: 25) (UniProt O95400)” yielded a log2 fold change of 0.781.
“SUPT7L (peptide sequence: IVNPEKATEDAKPVK, peptide start residue: 260) (UniProt O94864)” gave a log2 fold change of 0.313.
“TOP3B (peptide sequence: MSALAAYFV, peptide start residue: 854) (UniProt O95985)” gave a log2 fold change of 0.555.
With “DNAJC8 (peptide sequence: QREEEIEAQEK, peptide start residue: 191) (UniProt O75937)” the log2 fold change was -0.132.
In the case of “CDC123 (peptide sequence: SVILPLPQNVK, peptide start residue: 25) (UniProt O75794)”, the log2 fold change is reported as 0.195.
“UniProt O95201 (peptide sequence: GACTGAVEVGQR, peptide start residue: 195)” was tested, and the log2 fold change was -0.358.
In the case of “PRPF6 (peptide sequence: GQIEEQKEMMEK, peptide start residue: 716) (UniProt O94906)”, the log2 fold change is reported as -0.175.
Work on “PCNT (peptide sequence: DLESKDEVPGSR, peptide start residue: 2940) (UniProt O95613)” yielded a log2 fold change of -0.421.
For “UniProt O75419 (peptide sequence: VQTFSIHFGFK, peptide start residue: 358)”, the log2 fold change was -0.129.
Target “TOX4 (peptide sequence: LSTTPSPTSSLHEDGVEDFRR, peptide start residue: 173) (UniProt O94842)” has a log2 fold change of 0.439.
Target “ASMTL (peptide sequence: VSEFYEETK, peptide start residue: 141) (UniProt O95671)” has a log2 fold change of -0.661.
Work on “GIGYF1 (peptide sequence: SDSENWR, peptide start residue: 193) (UniProt O75420)” yielded a log2 fold change of 0.226.
Target “PARN (peptide sequence: YIVISKVDEEERK, peptide start residue: 238) (UniProt O95453)” has a log2 fold change of 0.335.
Work on “UniProt O95163 (peptide sequence: EYLPFLNTLKK, peptide start residue: 916)” yielded a log2 fold change of 0.366.
